Measured values reported in PubChem BioAssay AID2551 (National Center for Advancing Translational Sciences (NCATS), 2010).
Out of some 310,000 compounds screened, about 17,000 (5.5%) were called active. The shares of active, inactive and inconclusive entries below differ from those in the screen. Calls follow the shape of the dose curve; as a rule, active = well fitted inhibition curve with a large enough effect; inconclusive = small, poorly fitted or top-dose-only effect, or effect the other way; inactive = no such curve, though single readings can be large or run the other way. Potencies beside an inconclusive call are fits to weak or partial responses and may not hold up.

The chains behind the UniProt entries cited, without tags or fusion partners. Where a name states a change or a piece, a line headed by the entry shows the natural chain unless it says otherwise.
UniProt P51450: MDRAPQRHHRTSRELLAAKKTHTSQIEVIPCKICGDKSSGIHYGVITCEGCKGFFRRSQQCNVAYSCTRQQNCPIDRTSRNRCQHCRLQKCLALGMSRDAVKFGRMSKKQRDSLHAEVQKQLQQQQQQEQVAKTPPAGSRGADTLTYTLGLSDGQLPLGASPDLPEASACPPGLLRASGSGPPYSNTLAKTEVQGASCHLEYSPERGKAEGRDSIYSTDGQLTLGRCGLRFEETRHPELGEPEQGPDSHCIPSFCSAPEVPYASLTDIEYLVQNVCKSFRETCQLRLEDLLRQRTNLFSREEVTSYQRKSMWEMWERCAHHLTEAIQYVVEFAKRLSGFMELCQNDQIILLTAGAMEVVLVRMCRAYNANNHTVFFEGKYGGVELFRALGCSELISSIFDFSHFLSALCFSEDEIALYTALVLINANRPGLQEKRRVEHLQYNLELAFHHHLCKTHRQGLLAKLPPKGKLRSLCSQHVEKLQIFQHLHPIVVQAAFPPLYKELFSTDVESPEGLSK

The compounds below were run against Nuclear receptor ROR-gamma (Mus musculus) (UniProt P51450) (assay: qHTS for inhibitors of ROR gamma transcriptional activity). Settings: Drosophila S2 Gal4-RORgamma UAS-luciferase reporter, 20 h; series mostly up to 53.6 µM.
Procedure, shortened: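 Schneider cells (Drosophila), stable Gal4 DBD–ROR gamma + UAS-luc; 1 hr cmpd preincubation; Cu2+ induction 700 uM final; 20 hr ambient; luminescence.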
Also: nearly all actives have a fitted effect of over 60% in size.
Potency is read from the fitted curve at half-maximal effect.

Potency, inconclusive:
CN(Cc1cccs1)CC(O)COCc1ccco1 (centres undefined) 6.31 µM [activator, single point], COC(=O)Cn1cc(C(=O)C2CC2)c2ccccc21 5.62 µM [inhibitor, single point], CCC1CCCCN1C(=O)c1ccc2nc(Cc3ccc(OC)cc3)oc2c1 (centres undefined) 3.55 µM [activator, full curve], Cc1nn(Cc2ccc(F)cc2)c(Cl)c1/C=N/NC(=O)c1ccccc1 0.631 µM [activator, full curve], O=C(NCc1ccco1)NC1CCCCC1 35.5 µM [inhibitor, single point], NCCNC(=O)c1c(NC(=O)c2ccccc2)sc2c1CCCC2 8.91 µM [activator, partial curve], O=C(N/N=C/c1cccc(F)c1)c1ccc(Cl)cc1 35.5 µM [inhibitor, single point], CCN1CCCC1CN(Cc1cc2cc(C)ccc2[nH]c1=O)C(=O)Nc1ccccc1OC (centres undefined) 0.0398 µM [inhibitor, full curve, poor fit], CCN1C(=O)C(C(=O)Nc2ccc(OC)cc2)C2CC1(C)Oc1ccccc12 (centres undefined) 3.98 µM [activator, full curve, poor fit], Cn1c(SCC(=O)Nc2ccccc2)nc2ccccc2c1=O 11.2 µM [activator, partial curve], Cc1ccc(F)c(C2C3C=CCCC3(C)C(=O)N2Cc2ccccc2)c1 (centres undefined) 31.6 µM [inhibitor, single point], O=S(=O)(c1ccccc1Cl)N1CCC(Cc2ccccc2)CC1 10 µM [activator, partial curve], COc1ccccc1Nc1nnc(SCC(=O)N2CC(=O)Nc3ccccc32)s1 7.08 µM [activator, partial curve], Cc1ccc(C(=O)COC(=O)CN2C(=O)C3C4C=CC(C4)C3C2=O)cc1C (centres undefined) 14.1 µM [activator, single point], CCC1CN(C(=O)NCc2ccccc2)c2ccccc2O1 (centres undefined) 25.1 µM [activator, single point], CCc1ccc(/C=C2/SC(=S)N(CCC(=O)Nc3cccc(C(=O)O)c3)C2=O)cc1 0.447 µM [inhibitor, full curve], Nc1c(-c2ccccc2)c(CSc2nc3ccccc3[nH]2)nn1-c1ccc(C(=O)O)cc1 5.62 µM [activator, single point], O=C(CC(SCCO)c1ccc2c(c1)OCO2)c1cccs1 (centres undefined) 3.16 µM [inhibitor, partial curve], COc1ccc(CC(=O)Nc2nnc(SCc3ccccc3)s2)cc1S(=O)(=O)N1CCOCC1 1 µM [inhibitor, partial curve], O=C1OCCC1Sc1nc2ccccc2c(=O)n1-c1ccc(F)cc1 (centres undefined) 7.94 µM [activator, partial curve], O=C(c1ccc(-c2ccc(Cl)cc2)o1)N1CCN(c2ccc([N+](=O)[O-])cc2Cl)CC1 14.1 µM [activator, single point], CC1=C(C(=O)OC2CCCCC2)C(c2cccnc2)n2ncnc2N1 (centres undefined) 12.6 µM [activator, partial curve], O=C(CSc1ncccn1)N1CCC(Cc2ccccc2)CC1 35.5 µM [activator, single point], Cc1ccc(O)c(-c2cc(C(F)(F)F)[nH]n2)c1 12.6 µM [activator, single point], O=C(NCc1ccccc1Cl)c1ccc(S(=O)(=O)Nc2cccc(C(F)(F)F)c2)cc1 11.2 µM [activator, partial curve], Cc1cccc(OCc2nc3ccccc3n2C)c1 35.5 µM [inhibitor, single point], Cc1ccc(N=Nc2c(N)nn3c(C)cc(C)nc23)cc1 25.1 µM [inhibitor, single point], CC(=O)c1ccccc1OCCn1nc(C(=O)O)c2ccccc2c1=O 12.6 µM [activator, partial curve, poor fit], Cc1nc2ccccn2c1C(=O)Nc1ccc2c(c1)OCCO2 35.5 µM [inhibitor, single point], CCOC(=O)CCCC(=O)N1CCOCCOCCOCC1 8.91 µM [inhibitor, partial curve], N/C(=N\OC(=O)c1cccc2ccccc12)c1ccccn1 10 µM [inhibitor, partial curve], O=C(COc1ccc(-c2nnco2)cc1)NCc1ccccc1Cl 10 µM [activator, partial curve], O=[N+]([O-])c1ccc(/C=N/N2CCN(Cc3ccccc3)CC2)cc1 11.2 µM [activator, partial curve], S=c1nc(-c2ccccc2)[nH]c2ccc(Br)cc12 1.26 µM [inhibitor, full curve], COCCCNC(=O)/C=C/c1cccc(Cl)c1 10 µM [activator, partial curve], N/C(Cn1cncn1)=N\NC(=O)c1ccc(Cl)cc1Cl 35.5 µM [inhibitor, single point], Cn1nc(C(=O)OCC(=O)Nc2cccc(S(=O)(=O)N3CCCC3)c2)c2ccccc2c1=O 35.5 µM [activator, partial curve, poor fit], COc1ccc(F)cc1C(=O)C1CCCN(C(=O)c2cccc(N(C)C)c2)C1 (centres undefined) 14.1 µM [activator, single point], Cc1ccc(C)c(OCC(O)CN2C(C)CCCC2C)c1 (centres undefined) 35.5 µM [inhibitor, single point], CN(C)c1ccc(S(=O)(=O)N(C)C)cc1NC(=O)Cc1cccc2ccccc12 2 µM [activator, single point], O=[N+]([O-])c1ccc(CSc2nnc(SCc3ccc(Cl)cc3)s2)cc1 15.8 µM [activator, single point], CCNc1cc(S(=O)(=O)C(F)(F)F)ccc1N 15.8 µM [activator, partial curve], CCCC(=O)Nc1ccc(NC(=O)C23CC4CC(CC(C4)C2)C3)cn1 31.6 µM [activator, single point], Cn1c(=O)c2c(nc(Cl)n2CCOc2ccccc2)n(C)c1=O 11.2 µM [activator, single point]

Potency, inactive:
Cn1cccc1C(=O)N1CCC2(CCCN(C(c3ccccc3)c3ccccc3)C2)CC1, C/C=C/C(=O)C[C@H]1CC[C@@H](C)[C@@H](CCO)O1, CC(C)(C)c1ccc(C(=O)Nc2ccc(O)c3c(=O)cc(-c4cccc(Cl)c4)oc23)cc1, CCN(CC)CCN(C(=O)CN1C(=O)c2ccccc2C1=O)c1nc2cc3c(cc2s1)OCO3, O=C(CSc1nc2ccccc2c(=O)n1CC1CCCO1)NCC1CCCO1 (centres undefined), COc1ccc(C(=O)c2ccc(OC)cc2OC)cc1, Cc1cc(C)nc(Sc2c(C)nn(-c3ccccc3)c2C)n1, O=C(NCCCN1CCN(Cc2ccccc2)CC1)C1CCN(S(=O)(=O)N2CCC3(CC2)OCCO3)CC1, CC(C)c1nnc(NC(=O)CCC(=O)NC2CCCc3ccccc32)s1 (centres undefined), O=C(Nc1cccnc1)c1cc(-c2ccc(Br)cc2)nc2ccccc12, COc1ccc(NC(=S)N2CCN(C(=O)c3ccco3)CC2)cc1OC, O=C1c2ccccc2C(=O)N1CCCCN(C(=O)c1cccc([N+](=O)[O-])c1)c1ccc(Cl)cc1, CN(C)S(=O)(=O)c1ccc(Cl)c(NC(=O)CN2CCN(Cc3ccc4c(c3)OCO4)CC2)c1

Potency, active:
Cc1cccc(NC(=S)NCc2ccc3c(c2)OCO3)c1C 5.01 µM, Cc1cc(NC(=O)c2ccc(S(=O)(=O)N3CCc4ccccc43)cc2)no1 11.2 µM, C=CCn1c(O)c(N=NC(=S)Nc2ccccc2F)c2ccccc21 0.794 µM, CCOC(=O)C1=C(c2ccccc2)NC(=S)NC1C (centres undefined) 10 µM, CCOC(=O)c1cnc2ccccc2c1Nc1ccc2c(c1)OCCO2 11.2 µM, COc1ccc(/C=N/N2C(=O)CSC2=S)cc1 15.8 µM, NC(=S)N/N=C1\CCSc2ccc(Cl)cc21 2 µM, S=c1[nH]ccn1-c1ccc(Cl)cc1 3.55 µM, Cc1ccc(NC2=CC(=O)c3sc(C)nc3C2=O)cc1 2.24 µM, CCc1ccc(NC(=S)Nc2cc(OC)c(NC(=O)C(C)C)cc2OC)cc1 8.91 µM, CCOC(=O)c1[nH]cnc1C(=O)Nc1ccccc1C 12.6 µM, CCOC(=O)c1c(NC(=O)CNCCOC)sc2c1CCCC2 1.26 µM, Oc1c(N=NC(=S)Nc2ccccc2F)c2ccccc2n1Cc1ccccc1F 2.51 µM, CCN1/C(=C/c2ccc3ccccc3[n+]2CC)C=Cc2ccccc21 8.91 µM, Clc1ccc(SCc2cn3ccccc3n2)cc1 8.91 µM, Cc1cccc(-n2c(=S)[nH]c3c(oc4ccccc43)c2=O)c1 2.82 µM, Cc1[nH]nc2c1C(c1ccc(-c3ccccc3C#N)o1)C(C#N)=C(N)O2 (centres undefined) 8.91 µM
